The structures appear in SMILES notation. Structures can show the parent of a compound that is named as a salt. The list shows a part of the results. Single values are uncertain here, since repeats match poorly.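 PR50, a 50-repeat proline–arginine dipeptide protein from C9ORF72 (ALS/FTD), was expressed by transfection in U-2 OS human cells stably carrying a GFP sensor with import and classical export signals. Per-well nuclear-minus-cytoplasm GFP, normalized between in-plate DMSO (low) and PR-only (high), was scored versus other test wells; compounds well below zero were hits reversing PR.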

This assay deals with U-2 OS NCT-C biosensor cells expressing PR50. Nature of the assay: Z-score of normalised NCT-C biosensor translocation index in PR50-expressing cells; higher = more nuclear biosensor (more disrupted nuclear export). The conditions noted are these: 3 µM; 24 h.
As to `O=C1CCC(N2C(=O)c3ccccc3C2=O)C(=O)N1` (configuration not stated) [Thalidomide], the Z-score is inactive: 0.842. Regarding `CCCCc1nc(Cl)c(CO)n1Cc1ccc(-c2ccccc2-c2nnn[nH]2)cc1` [Losartan Potassium], the Z-score is inactive: 0.544. Consider `CC1(C)S[C@@H]2[C@H](NC(=O)Cc3ccccc3)C(=O)N2[C@H]1C(=O)O` [Penicillin G Potassium (Benzylpenicillin)], for which the Z-score is inactive: -0.395.

For the molecule `Cc1nc2n(c(=O)c1CCN1CCC(c3noc4cc(F)ccc34)CC1)CCCC2O` (configuration not stated) [Paliperidone], the Z-score is inactive: -0.232. For `CC(=O)OCC1=C(C(=O)O)N2C(=O)[C@@H](NC(=O)Cc3cccs3)[C@H]2SC1` [Cephalothin sodium salt], the Z-score is inactive: 0.0169. With `Clc1ccc(C(Cn2ccnc2)OCc2csc3c(Cl)cccc23)c(Cl)c1` (configuration not stated) [Sertaconazole nitrate] the figure was inactive: 1.84; with `Clc1ccc(C(Cn2ccnc2)OCc2csc3c(Cl)cccc23)c(Cl)c1` (configuration not stated) [Sertaconazole], inactive: -0.424; with `COc1c(O)c2c(=O)cc(OC)c3c4c(OC)cc(=O)c5c(O)c(OC)c6c(c(c1CC(C)=C6C(C)=O)c23)c54` [Hypocrellin B], inactive: -0.849.

Turning to `Cc1cc(C)nc(SCC(=O)Nc2ncc(Cc3cccc4ccccc34)s2)n1`, the Z-score was inactive: -0.0432.

As to `COCC(=O)O[C@]1(CCN(C)CCCc2nc3ccccc3[nH]2)CCc2cc(F)ccc2[C@@H]1C(C)C` [Mibefradil dihydrochloride], the Z-score is inactive: -0.45. Take `CCC(=O)OCC(=O)[C@@]1(OC(=O)CC)[C@@H](C)C[C@H]2[C@@H]3CCC4=CC(=O)C=C[C@]4(C)[C@@]3(Cl)[C@@H](O)C[C@@]21C` [Beclomethasone Dipropionate]: the Z-score is inactive: -0.337. Turning to `CN(C)c1ccccc1CN1CCCN(Cc2ccccc2N(C)C)C1c1ccncc1`, the Z-score was inactive: -0.606. On to `OC[C@H]1O[C@@H](n2cnc3c2N=CNC[C@H]3O)C[C@@H]1O` [Pentostatin], for which the Z-score was inactive: -0.0923. Regarding `O=c1c2ccccc2nc2n1CCc1c-2[nH]c2ccccc12` [Rutaecarpine], the Z-score was inactive: -0.703. As for `O=C(/C=C/C=C/c1ccc2c(c1)OCO2)N1CCCCC1` [Piperine], the Z-score was inactive: -0.314. With `COc1nc(N)nc2c1ncn2[C@@H]1O[C@H](CO)[C@@H](O)[C@@H]1O` [Nelarabine], the Z-score is inactive: 0.228.

Regarding `O=C(CCCN1CCC(O)(c2cccc(C(F)(F)F)c2)CC1)c1ccc(F)cc1` [Trifluperidol hydrochloride], the Z-score was inactive: -0.0977.

Values taken from the supplement of paper PMC8616043.
